Record: PubChem BioAssay AID720505 (Drosophila RNAi Screening Center, 2013)
Aim: 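Fly regulators or components of the CRAC channel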 (primary screen). Cell system: Drosophila S2R+ cells. Reagents: long dsRNA against Drosophila genes. Challenge: thapsigargin (2 µM) in calcium-free buffer to empty internal stores, then 2 mM calcium added back. Read-out: 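Fluo-4 signal in 384-well plates read on a FLIPR after thapsigargin (2 µM, calcium-free) store depletion and 2 mM calcium add-back; unnormalised mean endpoint per well; screen run twice, selected wells retested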. Reading the numbers: calcium signal and retest calcium signal: higher = more calcium entry after store depletion. Hit rule: 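About 1500 genes called as lowering calcium entry, by varying amounts, judged against per-plate control wells with STIM1 as positive and Rho1 as negative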. Meaning of the calls: active = called as lowering calcium entry; inactive = not called.
The deposit covers about 20,000 reagents; below is a random part of those that have a named target and a result. Over the whole deposit, about 2,100 (10%) are marked active. 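Raw plate signals without normalisation; calls rest on control-based scores that were not deposited; replicate 2 separates called from uncalled poorly.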 Names joined by + are all predicted targets of the reagent. Not stated in the record: the amount of reagent, the time to read-out.

Gene | amplicon | calcium signal, replicate 1 | calcium signal, replicate 2 | retest calcium signal, replicate 1 | retest calcium signal, replicate 2 | Call
Mctp | DRSC06510 | 179 | 151 | – | – | inactive
Mctp | DRSC22896 | 101 | 157 | – | – | inactive
fand | DRSC06967 | 109 | 88.5 | – | – | inactive
CG5326 | DRSC15770 | 226 | 251 | – | – | inactive
CG4592 | DRSC02761 | 97 | 140 | – | – | inactive
Miro | DRSC15795 | 124 | 243 | – | – | inactive
Fas2 | DRSC18664 | 121 | 145 | – | – | inactive
bero | DRSC03211 | 177 | 92.5 | – | – | inactive
Dnz1 | DRSC03317 | 85.3 | 101 | – | – | inactive
Pxd | DRSC16805 | 145 | 142 | – | – | inactive
CG10616 | DRSC09750 | 102 | 83.9 | – | – | inactive
CG7164 | DRSC03018 | 102 | 136 | – | – | inactive
CG5276 | DRSC15759 | 126 | 133 | – | – | inactive
CG14194 | DRSC19549 | 67.4 | 181 | – | – | active
Slmap | DRSC03799 | 141 | 77 | – | – | inactive
Uch-L5R | DRSC19825 | 126 | 93.3 | – | – | inactive
CSN8 | DRSC02257 | 141 | 217 | – | – | inactive
CG42703 | DRSC03973 | 69.1 | 7076 | – | – | inactive
SLC5A11 | DRSC03088 | 127 | 241 | – | – | inactive
fus | DRSC05569 | 103 | 135 | – | – | inactive
fus | DRSC07107 | 115 | 129 | – | – | inactive
mRpL51 | DRSC02200 | 78.8 | 88.2 | – | – | inactive
unc-13 | DRSC17223 | 114 | 166 | – | – | inactive
IFT43 | DRSC02892 | 70.3 | 154 | – | – | inactive
CG7741 | DRSC07035 | 135 | 225 | – | – | inactive
l(2)k10201 | DRSC06439 | 119 | 173 | – | – | inactive
l(2)k10201 | DRSC07640 | 97.8 | 145 | – | – | inactive
CG31251 | DRSC16247 | 151 | 98.3 | – | – | inactive
Tbh | DRSC18723 | 189 | 160 | – | – | inactive
HmgZ | DRSC03888 | 76.6 | 7880 | – | – | inactive
HmgZ | DRSC04620 | 176 | 80.8 | 102 | 78.3 | inactive
Lip1 | DRSC03364 | 62.3 | 94.4 | – | – | active
CG17754 | DRSC18131 | 75 | 105 | – | – | active
Lime | DRSC06752 | 80 | 194 | – | – | inactive
Bcs1 | DRSC02789 | 171 | 129 | – | – | inactive
DhpD | DRSC12288 | 108 | 82.5 | – | – | inactive
CAH2 | DRSC10746 | 87.2 | 78.5 | – | – | inactive
ball | DRSC14145 | 108 | 114 | – | – | inactive
CG7362 | DRSC16236 | 145 | 138 | 99.6 | 81.5 | inactive
wts | DRSC17096 | 115 | 154 | – | – | active
wts | DRSC22975 | 74.9 | 71.5 | – | – | inactive
CG42296 | DRSC00394 | 125 | 112 | – | – | inactive
CG11262 | DRSC09831 | 71.1 | 127 | – | – | inactive
CG12990 | DRSC19510 | 115 | 122 | – | – | inactive
CG42375 + CG9288 | DRSC16468 | 67.1 | 101 | – | – | active
CG14495 | DRSC06466 | 96 | 120 | – | – | inactive
CG4199 | DRSC18519 | 112 | 122 | – | – | inactive
CG4199 | DRSC21314 | 103 | 95.3 | – | – | inactive
CG33252 | DRSC19162 | 83.8 | 92.9 | – | – | inactive
CG30416 | DRSC04565 | 62.8 | 201 | – | – | active
CG6330 | DRSC16022 | 129 | 109 | – | – | inactive
SdhCL | DRSC16078 | 71.4 | 205 | – | – | active
ewg | DRSC18773 | 105 | 131 | 104 | 89.6 | inactive
CG8006 | DRSC10949 | 96 | 135 | – | – | inactive
klar | DRSC08718 | 46.1 | 148 | – | – | active
klar | DRSC22393 | 85.9 | 73.1 | – | – | inactive
Parp16 | DRSC06597 | 144 | 116 | – | – | inactive
Trf5 | DRSC00412 | 161 | 145 | – | – | inactive
Blm + CG14721 | DRSC14943 | 187 | 117 | – | – | inactive
bou | DRSC17924 | 245 | 134 | – | – | inactive
CR42785 | DRSC04962 | 80.6 | 90.3 | – | – | inactive
D19B | DRSC11134 | 90.7 | 78.9 | – | – | inactive
yip7 | DRSC11410 | 60.2 | 60.8 | – | – | inactive
NimB5 | DRSC01885 | 121 | 174 | – | – | inactive
Mcm10 | DRSC03162 | 110 | 111 | – | – | inactive
EbpIII | DRSC04638 | 82.5 | 126 | – | – | inactive
CG11149 | DRSC02130 | 149 | 141 | – | – | inactive
Paip1 | DRSC07302 | 67 | 129 | – | – | active
Tm1 | DRSC13083 | 7354 | 147 | – | – | inactive
Tm1 | DRSC16886 | 80 | 107 | – | – | inactive
mtDNA-helicase | DRSC02912 | 169 | 146 | – | – | inactive
CG5255 | DRSC15754 | 144 | 185 | – | – | inactive
Peritrophin-15a | DRSC02636 | 144 | 113 | – | – | inactive
CG8939 | DRSC20127 | 104 | 108 | – | – | inactive
RpL12 | DRSC04344 | 42.7 | 115 | – | – | active
Fhos | DRSC10545 | 98.5 | 110 | – | – | inactive
Fhos | DRSC10546 | 98.7 | 76.3 | – | – | inactive
Fhos | DRSC10547 | 98.9 | 88.4 | – | – | inactive
CG31157 | DRSC21832 | 153 | 69.5 | – | – | inactive
bonsai | DRSC04453 | 60.7 | 136 | – | – | active
nudC | DRSC11096 | 103 | 193 | – | – | inactive
nudC | DRSC11097 | 95.2 | 194 | – | – | inactive
CG8531 | DRSC07209 | 196 | 144 | – | – | inactive

Sorted by “calcium signal, replicate 1” (lowest first): some entries from above
Gene | amplicon | calcium signal, replicate 1 | calcium signal, replicate 2 | retest calcium signal, replicate 1 | retest calcium signal, replicate 2 | Call
yip7 | DRSC11410 | 60.2 | 60.8 | – | – | inactive
Paip1 | DRSC07302 | 67 | 129 | – | – | active
EbpIII | DRSC04638 | 82.5 | 126 | – | – | inactive
Mcm10 | DRSC03162 | 110 | 111 | – | – | inactive
NimB5 | DRSC01885 | 121 | 174 | – | – | inactive
CG11149 | DRSC02130 | 149 | 141 | – | – | inactive
Tm1 | DRSC13083 | 7354 | 147 | – | – | inactive
